Values quoted from earlier work, collected in patent publication US20050058718A1, “Preparations for cigarette toxicity reduction, health enhancement, and addiction elimination” (priority 2003, published 2005).
At least one structure is not confirmed: it was looked up by name or label, or the drawing left a doubt.

Test system: cancer-causing chemicals
Settings: little rats, drinking water with 1-2 ppm sodium selenite

O=[Se](O)O [sodium selenite]
decrease of tumor incidence: 70%
